Reference: PMC6376327
No constants are given. Whether binding was seen depends on the method and setting. Some entries that bind do so weakly or less than the wild type.

Sequences of proteins named here, by UniProt entry; tags and fusion partners are left off. A change or cut given only in a name is not applied to a line headed by its entry. Residues count along the entry.
UniProt P01031: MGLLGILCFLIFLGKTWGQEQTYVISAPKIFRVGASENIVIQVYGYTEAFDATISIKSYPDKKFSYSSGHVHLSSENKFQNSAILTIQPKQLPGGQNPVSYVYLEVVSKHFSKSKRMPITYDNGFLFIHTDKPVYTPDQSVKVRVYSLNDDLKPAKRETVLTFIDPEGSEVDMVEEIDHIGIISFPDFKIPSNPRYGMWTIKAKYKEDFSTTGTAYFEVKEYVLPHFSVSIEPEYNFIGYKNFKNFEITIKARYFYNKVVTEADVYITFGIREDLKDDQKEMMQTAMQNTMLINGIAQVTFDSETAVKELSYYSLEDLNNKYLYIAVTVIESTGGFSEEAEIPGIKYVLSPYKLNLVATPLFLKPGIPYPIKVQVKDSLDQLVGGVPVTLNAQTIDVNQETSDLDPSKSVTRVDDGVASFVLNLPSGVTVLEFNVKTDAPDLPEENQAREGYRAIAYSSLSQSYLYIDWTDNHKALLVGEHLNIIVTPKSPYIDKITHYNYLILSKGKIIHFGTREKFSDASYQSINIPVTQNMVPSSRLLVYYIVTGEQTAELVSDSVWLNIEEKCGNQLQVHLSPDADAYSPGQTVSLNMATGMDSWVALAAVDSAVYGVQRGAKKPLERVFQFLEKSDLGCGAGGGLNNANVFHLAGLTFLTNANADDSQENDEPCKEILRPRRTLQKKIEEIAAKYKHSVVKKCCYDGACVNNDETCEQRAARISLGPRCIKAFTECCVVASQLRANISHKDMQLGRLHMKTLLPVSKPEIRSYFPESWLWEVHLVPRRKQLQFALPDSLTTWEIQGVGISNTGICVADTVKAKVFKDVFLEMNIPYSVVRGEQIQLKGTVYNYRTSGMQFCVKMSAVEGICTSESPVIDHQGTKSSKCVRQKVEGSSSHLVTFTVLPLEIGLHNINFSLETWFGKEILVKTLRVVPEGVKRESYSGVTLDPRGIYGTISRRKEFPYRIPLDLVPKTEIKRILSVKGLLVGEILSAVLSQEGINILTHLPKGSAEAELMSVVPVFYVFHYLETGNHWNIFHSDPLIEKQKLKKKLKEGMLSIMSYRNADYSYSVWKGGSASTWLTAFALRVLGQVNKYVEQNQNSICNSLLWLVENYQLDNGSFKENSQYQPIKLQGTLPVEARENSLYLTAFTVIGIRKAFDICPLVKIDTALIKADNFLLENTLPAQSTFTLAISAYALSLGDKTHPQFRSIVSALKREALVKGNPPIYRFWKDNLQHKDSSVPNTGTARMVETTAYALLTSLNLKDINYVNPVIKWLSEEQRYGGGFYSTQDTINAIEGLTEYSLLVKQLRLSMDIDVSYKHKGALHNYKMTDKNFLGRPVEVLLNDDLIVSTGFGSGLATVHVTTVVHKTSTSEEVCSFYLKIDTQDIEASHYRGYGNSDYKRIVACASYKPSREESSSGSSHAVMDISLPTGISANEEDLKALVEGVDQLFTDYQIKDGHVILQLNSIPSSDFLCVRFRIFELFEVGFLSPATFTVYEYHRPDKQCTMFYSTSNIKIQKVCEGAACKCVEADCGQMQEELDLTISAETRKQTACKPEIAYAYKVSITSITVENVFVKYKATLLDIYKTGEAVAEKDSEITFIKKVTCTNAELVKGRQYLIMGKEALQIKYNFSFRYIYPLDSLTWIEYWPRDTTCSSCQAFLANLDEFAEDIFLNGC
UniProt P02748, residues 22-559: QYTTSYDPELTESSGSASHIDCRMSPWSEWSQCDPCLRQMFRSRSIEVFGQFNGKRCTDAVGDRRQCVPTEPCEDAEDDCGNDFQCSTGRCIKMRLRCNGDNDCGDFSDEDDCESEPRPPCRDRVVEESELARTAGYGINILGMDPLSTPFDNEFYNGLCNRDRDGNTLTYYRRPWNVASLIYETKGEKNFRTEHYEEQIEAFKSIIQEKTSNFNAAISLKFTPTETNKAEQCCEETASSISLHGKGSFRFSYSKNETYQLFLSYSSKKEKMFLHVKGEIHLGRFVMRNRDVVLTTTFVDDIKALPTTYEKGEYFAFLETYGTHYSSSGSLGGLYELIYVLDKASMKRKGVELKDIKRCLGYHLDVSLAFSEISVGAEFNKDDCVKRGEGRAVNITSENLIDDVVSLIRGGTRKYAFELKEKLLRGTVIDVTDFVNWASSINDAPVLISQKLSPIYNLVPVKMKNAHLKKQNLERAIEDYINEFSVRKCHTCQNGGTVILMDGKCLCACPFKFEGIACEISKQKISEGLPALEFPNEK

Target: C5b-8 assembled on convertase-labeled E. coli from preassembled C5b6, C7 and C8 (UniProt P01031)
Experiment: flow cytometry on cells; convertase-labeled E. coli exposed to a concentration range of preassembled C5b6 or of C5 and C6 with 100 nM C7; after washing, 20 nM C8 and 100 nM C9-Cy3 added; 37°C, RPMI + 0.05% HSA; C9-Cy3 on bacteria read by flow cytometry; control at 0 nM C5b6 or C5-C6; only the binder purified

## C9-Cy3 (from UniProt P02748 22-559)
  binding: binds
